Marks after values point to notes of the source that are not given here.
Columns and labels:
Fab317 = assay: ITC affinity measurement of peptides to Fab317; type: binding, human; conditions: 25 °C, Dulbecco's PBS, Fab317 9.7 μM in cell
Method: (§1) ITC affinity measurements were performed using a MicroCal Auto-iTC200 instrument (GE Healthcare). […]
(§2) General. All peptides were ordered from Innopep Inc. with a 10-μg/mL solution of the Fab of interest in blocking buffer. The purity of >98% and contained chlorine counter ions. The pep- membrane was then washed three times for 5 min each in TBST tides have N-terminal acetylation and C-terminal amidation to buffer, after which it was incubated for 2 h with an anti-human eliminate charges at the peptide termini. Fab genes were codon Fab secondary antibody conjugated to HRP (Sigma-Aldrich) at a optimized, synthesized, and cloned into pHCMV3 vectors by 1:20,000 dilution in blocking buffer. […]
(§3) Antibodies 311 and 317 were selected forITC. A MicroCal Auto-iTC200 (GE Healthcare) was used to structural studies because of their functional activity, high avidity perform ITC measurements. Before the experiments, all proteins index, and similar heavy-chain germline genes. were extensively dialyzed against Dulbecco’s PBS (Thermo Evaluation of the Protective Activity of mAbs. mAbs (100 μg for Fischer). The peptides were placed in the syringe at a concentration Ab311 and 300 μg for Ab317 and Ab2A10) against the NANP of 122μM for Ac-NPNANPNA-NH2, 116 μM for Ac-repeats of P. falciparum CSP were administered to 7- to 8-wk-old NPNANPNANPNA-NH2,89μM for Ac-[…]- […]
(§4) C57BL/6 mice (five mice per group) by i.v. injection [in 200 μLof NH2, and 110 μM for Ac-DPNANPNVDPNA-NH2, whereas the […]
(§5) PBS (pH 7.4)]. The mice were challenged 5–10 min later by i.v. concentrations of Fab fragments in the cell were 10.3 and 9.7 μM injection with 2,000 P. berghei chimeric sporozoites expressing for Fab311 and Fab317, respectively. The Fab and peptide P. falciparum CSP (3D7 strain) generated as previously described concentrations were determined by UV absorbance at 280 nm (22). Forty hours later, livers were harvested, and RNA was and 205 nm. Molar extinction coefficients for the peptides were isolated to quantify the malaria-specific 18s rRNA levels by real- estimated using a previously published method (35). Experi-time PCR (34). Inhibition of parasite development was calcu- ments were carried out in triplicate at 25 °C, except for lated by comparing the parasite liver burdens of experimental Fab317 binding to Ac-[…]-NH2, which was […]
(§6) and naive control mice. The statistical analyses were done with done in duplicate, and consisted of 16 injections of 2.45 μL each, the Mann–Whitney U test. Data were plotted using GraphPad with injection duration of 4.9 s, inject io n interval of 180 s, and Prism 6.0 software. No samples were excluded from statistical reference power of 5 μCa l. Fi tt in g of the integrate d titrati on analyses. peaks was performed with Origin 7.0 software using a single-site binding model. The first data point and any outliers were Expression and Purification of Recombinant CSP. The rsCSP con- excluded from the fit. […]
(§7) Two 1-L NaCl, 2.7 mM KCl, pH 8.0) with a 5:1 molar ratio of (NPNA)3 cultures were inoculated the next day with 25 mL overnight peptide to Fab. Crystals were grown using sitting-drop vapor culture and were grown at 37 °C. When the optical density at diffusion with a well solution containing 0.1 M MES (pH 6.0), 600 nm reached a value of 1, the cultures were induced with 36% PEG400, 5% PEG3000 for the Fab311–peptide complex, 1 mM isopropyl β-D-1-thiogalactopyranoside for 6 h. The cells and 0.1 M sodium citrate (pH 4.0), 1 M lithium chloride, 20% then were harvested and lysed by microfluidization. The lysate PEG6000 for the Fab317–peptide complex. Crystals were grown was incubated overnight with Ni cOmplete resin (Roche) and at 298 K and typically appeared within 3 d. Fab311–peptide was eluted using a buffer containing 200 mM imidazole. Typi- crystals were cryo-cooled without additional cryoprotection, cally, 10 mg of protein was obtained per 2 L of culture. Samples while Fab317–peptide crystals were cryoprotected by soaking in […]

Fab311 = assay: ITC affinity measurement of peptides to Fab311; type: binding, human; conditions: 25 °C, Dulbecco's PBS, Fab311 10.3 μM in cell, average and SD of triplicate experiments
Method: as §1, §2, §3, §4, §5, §6, §7

[1] = average and SD of triplicate experiments
[2] = peptide 89 μM in syringe, duplicate experiments

| Molecule | ∆H (Fab317; [1]) | ∆S (Fab317; [1]) | ∆H (Fab311) | ∆S (Fab311) | ∆H (Fab317; [2]) | ∆S (Fab317; [2]) |
| --- | --- | --- | --- | --- | --- | --- |
| CC(=O)N[C@@H](CC(N)=O)C(=O)N1CCC[C@H]1C(=O)N[C@@H](CC(N)=O)C(=O)N[C@@H](C)C(=O)N[C@@H](CC(N)=O)C(=O)N1CCC[C@H]1C(=O)N[C@@H](CC(N)=O)C(=O)N[C@@H](C)C(N)=O [(NPNA)2, Ac-NPNANPNA-NH2] | −12,090 ± 221 cal/mol | −10 ± 1 cal^−1⋅mol^−1⋅degree^−1 | −16,363 ± 261 cal/mol | −25 ± 1 cal^−1⋅mol^−1⋅degree^−1 |  |  |
| CC(=O)N[C@@H](CC(N)=O)C(=O)N1CCC[C@H]1C(=O)N[C@@H](CC(N)=O)C(=O)N[C@@H](C)C(=O)N[C@@H](CC(N)=O)C(=O)N1CCC[C@H]1C(=O)N[C@@H](CC(N)=O)C(=O)N[C@@H](C)C(=O)N[C@@H](CC(N)=O)C(=O)N1CCC[C@H]1C(=O)N[C@@H](CC(N)=O)C(=O)N[C@@H](C)C(N)=O [(NPNA)3, Ac-NPNANPNANPNA-NH2] | −15,700 ± 225 cal/mol | −20 ± 1 cal^−1⋅mol^−1⋅degree^−1 | −29,823 ± 261 cal/mol | −70 ± 1 cal^−1⋅mol^−1⋅degree^−1 |  |  |
| Ac-DPNANPNVDPNA-NH2 [DPNANPNVDPNA, Ac-DPNANPNVDPNA-NH2] | −9,387 ± 152 cal/mol | −2 ± 1 cal^−1⋅mol^−1⋅degree^−1 | −20,200 ± 1,078 cal/mol | −41 ± 4 cal^−1⋅mol^−1⋅degree^−1 |  |  |
| Ac-NPNVDPNANPNV-NH2 [NPNVDPNANPNV, Ac-NPNVDPNANPNV-NH2] |  |  | −18,657 ± 378 cal/mol | −36 ± 2 cal^−1⋅mol^−1⋅degree^−1 | −9,657 ± 426 cal/mol | −10 ± 2* cal^−1⋅mol^−1⋅degree^−1 |
